PubChem BioAssay AID1259308, NCATS, 2017
Purpose: 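Genes whose loss raises luciferase production in HEK293 cells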 (primary screen). System: human HEK293 embryonic kidney cells stably expressing firefly luciferase (HEK-CMV-Luc2-Hygro). Reagents: single siRNA against human genes, 0.8 pmol siRNA per well. Duration: 72 h. Measurement: 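Luciferase light (ONE-Glo) measured on one replicate plate set and viability (CellTiter-Glo) on the other, scaled to a negative control siRNA, with robust z-scores and luciferase per cell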. Direction: total luciferase, z-score: higher = more reporter protein produced. Rule for the call: 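An siRNA counts as active if its total luciferase robust z-score exceeds 3; genes with two or more such siRNAs out of three were retested with fresh siRNAs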. Calls: active = raised luciferase; inactive = no rise.
Here is one part, drawn at random, of about 59,000 deposited reagents. About 1,510 of them (2.6%) count as active. 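Calls use total luciferase alone and ignore viability, so some active siRNAs may act by altering cell number.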 Unmarked entries are inactive. Reagents against one gene are numbered here. Not all columns of the deposit are shown. No sequences are given here.

total luciferase, z-score, by gene and reagent
NR2E1: #1 -0.0103; #2 -0.0747; #3 -0.0311
MYH7: #1 1.26; #2 -0.137; #3 0.704
POGLUT2: #1 0.725; #2 -0.0558; #3 -1.25
HMCN1: #1 0.0895; #2 -0.777; #3 -0.673
MRPL10: #1 2.5; #2 1.43; #3 0.533
OR9A2: #1 0.553; #2 0.157; #3 0.505
TRIM52: #1 -0.686; #2 0.242; #3 1.91
TSEN54: #1 -0.639; #2 0.587; #3 0.224
SAMD8: #1 0.589; #2 0.135; #3 0.142
C1QB: #1 -0.167; #2 0.694; #3 1.22
SPIDR: #1 0.0252; #2 -1.18; #3 0.719
DHX36: #1 -0.095; #2 -0.108; #3 0.461
LOC649305 (retired record): #1 -1.24; #2 2.14; #3 0.924
EOGT: #1 -0.198; #2 -0.102; #3 -0.313
KMT5A: #1 -0.0318; #2 2.48; #3 1.37
B4GALT2: #1 -0.381; #2 -0.0875; #3 -0.545
OR51L1: #1 -1.14; #2 2.01; #3 1.09
MAP2K6: #1 -0.947; #2 -0.21; #3 -1.32
SLFN11: #1 -0.322; #2 1.38; #3 -1.3
